At least one compound was matched to its structure with a doubt left.
Test system: hamster INGAP 5′-regulatory region
Experiment: β-galactosidase reporter assay with hamster INGAP 5′-regulatory region fragments in transfected 293T cells
Assay type: cell-based
Conditions: construct with INGAP 5′-regulatory region nucleotides 2030 to 3120; human 293T cells; treated 24 hours, two days after transfection; FIG. 9B
Source text: Promoter analysis of INGAP identified a number of potential promoter-proximal regulatory sites including the consensus transcription factor binding sites; cAMP response element (CRE), AP-1 and STAT. Promoter-fragment reporter-gene constructs were transiently transfected into 293T cells and co-transfection of secretory alkaline phosphatase was used to normalize for transfection efficiency.
Reporter constructs containing INGAP 5′-regulatory region fragments 2—3sP (SEQ ID NO: 37), 2—3dP (SEQ ID NO: 38), 2—3pP (SEQ ID NO: 36), 14—3P (SEQ ID NO: 34), 16—3P (SEQ ID NO: 31), or 19—3P (SEQ ID NO: 23) were transfected into human cells. […] To determine the level of promoter activity, the amount of β-galactosidase gene product was determined using a luminescent assay for β-galactosidase.
Reporter construct containing INGAP 5′-regulatory region DNA nucleotides 2030 to 3120 was transfected into human cells. […] To determine the level of promoter activity, the amount of β-galactosidase gene product was determined using a luminescent assay for β-galactosidase.
To map the approximate location of PMA-initiated or LIF-initiated transcription factor binding different fragments of the hamster INGAP 5′-regulatory region were cloned into pβGal-Basic. […] To determine the level of promoter activity, the amount of β-galactosidase gene product was determined using a luminescent assay for β-galactosidase. […]

Structure (SMILES): C=C[C@@]1(C)CC(=O)[C@]2(O)[C@@]3(C)[C@@H](O)CCC(C)(C)[C@@H]3[C@H](O)[C@H](OC(C)=O)[C@@]2(C)O1 [Forskolin, reference compound]
- promoter activity (β-galactosidase reporter, luminescent assay): did not modulate gene expression
